Data as given in PubChem BioAssay AID686938 (Drosophila RNAi Screening Center, 2013)
Aim: 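Knock-downs reducing store-operated calcium influx in Drosophila cells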 (primary screen). Cells: Drosophila S2R+ cells. Knock-down reagent: long dsRNA against Drosophila genes, about 0.25 µg dsRNA per well, roughly 10,000 cells. Time to read-out: 5 days of knock-down before the calcium assay. Treatment: thapsigargin (SERCA pump blocker) to empty calcium stores; entry signal taken 4 min after adding it. Detection: 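Per-well fluo-4 fluorescence in two replicates, unnormalised, measured in resting cells and 4 min after store depletion by the SERCA blocker thapsigargin; ratio of the two present in few wells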. Scale: calcium entry signal: higher = stronger calcium signal after store depletion; resting calcium signal: higher = higher resting calcium signal. Rule for the call: 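Called when the plate z-score of the entry-to-rest ratio, mean of duplicates, falls below −3; wells with low overall dye signal (Fmax z below −2) or more than five off-targets excluded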. Meaning of the calls: active = strongly reduced calcium entry; inactive = no strong reduction.
The screen tested about 23,000 reagents; below is a random part of those with a known target gene and a result. Over the whole deposit, 75 (0.33%) are marked active. 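Raw plate signals without normalisation; calls rest on plate z-scores that were not deposited; ratio present for only 364 wells.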 Reagent sequences are not shown. Not stated in the record: the dose of the treatment.

Depletion of ATPsynE (GeneID 41745) [DRSC15476] came out at: calcium entry signal, replicate 1 (fluorescence units) = 3.46e7; calcium entry signal, replicate 2 (fluorescence units) = 3.96e7; resting calcium signal, replicate 1 (fluorescence units) = 1.47e7; resting calcium signal, replicate 2 (fluorescence units) = 1.85e7; inactive.
With knock-down of CG18649 (GeneID 39636) [DRSC10334], the screen gave calcium entry signal, replicate 1 (fluorescence units) = 3.14e7; calcium entry signal, replicate 2 (fluorescence units) = 5.23e7; resting calcium signal, replicate 1 (fluorescence units) = 1.56e7; resting calcium signal, replicate 2 (fluorescence units) = 2.06e7; inactive.
With knock-down of CG7294 (GeneID 34470) [DRSC03041] the results were calcium entry signal, replicate 1 (fluorescence units) = 3.47e7; calcium entry signal, replicate 2 (fluorescence units) = 5.04e7; resting calcium signal, replicate 1 (fluorescence units) = 1.46e7; resting calcium signal, replicate 2 (fluorescence units) = 2.30e7; inactive.
For comm3 (GeneID 39696) [DRSC09993] the deposit lists calcium entry signal, replicate 1 (fluorescence units) = 4.79e7; calcium entry signal, replicate 2 (fluorescence units) = 5.75e7; resting calcium signal, replicate 1 (fluorescence units) = 2.10e7; resting calcium signal, replicate 2 (fluorescence units) = 2.42e7; inactive.
Knock-down of comm3 (GeneID 39696) [DRSC09994] came out at: calcium entry signal, replicate 1 (fluorescence units) = 4.33e7; calcium entry signal, replicate 2 (fluorescence units) = 5.90e7; resting calcium signal, replicate 1 (fluorescence units) = 1.94e7; resting calcium signal, replicate 2 (fluorescence units) = 2.48e7; inactive.
After knock-down of comm3 (GeneID 39696) [DRSC09995], the screen gave calcium entry signal, replicate 1 (fluorescence units) = 5.20e7; calcium entry signal, replicate 2 (fluorescence units) = 6.10e7; resting calcium signal, replicate 1 (fluorescence units) = 2.11e7; resting calcium signal, replicate 2 (fluorescence units) = 2.39e7; inactive.
With knock-down of CG6244 (GeneID 2768962) [DRSC10609], the record shows calcium entry signal, replicate 1 (fluorescence units) = 5.39e7; calcium entry signal, replicate 2 (fluorescence units) = 6.57e7; resting calcium signal, replicate 1 (fluorescence units) = 2.41e7; resting calcium signal, replicate 2 (fluorescence units) = 2.43e7; inactive.
Against Dhrs4 (GeneID 38598) [DRSC09773] the deposit lists calcium entry signal, replicate 1 (fluorescence units) = 5.41e7; calcium entry signal, replicate 2 (fluorescence units) = 4.25e7; resting calcium signal, replicate 1 (fluorescence units) = 3.53e7; resting calcium signal, replicate 2 (fluorescence units) = 1.78e7; inactive.
scyl (GeneID 39270) [DRSC11392] showed calcium entry signal, replicate 1 (fluorescence units) = 2.67e7; calcium entry signal, replicate 2 (fluorescence units) = 4.45e7; resting calcium signal, replicate 1 (fluorescence units) = 1.51e7; resting calcium signal, replicate 2 (fluorescence units) = 2.01e7; inactive.
Depletion of Obp56g (GeneID 37270) [DRSC06432] gave: calcium entry signal, replicate 1 (fluorescence units) = 5.99e7; calcium entry signal, replicate 2 (fluorescence units) = 7.59e7; resting calcium signal, replicate 1 (fluorescence units) = 2.67e7; resting calcium signal, replicate 2 (fluorescence units) = 3.56e7; inactive.
CG32241 (GeneID 317934) [DRSC08100] gave calcium entry signal, replicate 1 (fluorescence units) = 4.99e7; calcium entry signal, replicate 2 (fluorescence units) = 3.16e7; resting calcium signal, replicate 1 (fluorescence units) = 2.81e7; resting calcium signal, replicate 2 (fluorescence units) = 1.56e7; inactive.
Silencing of CG32241 (GeneID 317934) [DRSC21518] gave: calcium entry signal, replicate 1 (fluorescence units) = 4.36e7; calcium entry signal, replicate 2 (fluorescence units) = 3.90e7; resting calcium signal, replicate 1 (fluorescence units) = 2.33e7; resting calcium signal, replicate 2 (fluorescence units) = 1.81e7; inactive.

Single entries from above.
Value of CG32241 (GeneID 317934) [DRSC21518] under “calcium entry signal, replicate 2 (fluorescence units)”: 3.90e7
Under “activity call”, CG7294 (GeneID 34470) [DRSC03041] shows inactive

Further reagents follow:
Knock-down of MFS10 (GeneID 32263) [DRSC19888] resulted in: calcium entry signal, replicate 1 (fluorescence units) = 3.82e7; calcium entry signal, replicate 2 (fluorescence units) = 3.94e7; resting calcium signal, replicate 1 (fluorescence units) = 1.80e7; resting calcium signal, replicate 2 (fluorescence units) = 1.86e7; inactive.
Knock-down of CG9109 (GeneID 33844) [DRSC03139] gave: calcium entry signal, replicate 1 (fluorescence units) = 4.81e7; resting calcium signal, replicate 1 (fluorescence units) = 2.17e7; inactive.
Against SdhA (GeneID 37228) [DRSC07547], the values are calcium entry signal, replicate 1 (fluorescence units) = 3.09e7; calcium entry signal, replicate 2 (fluorescence units) = 2.89e7; resting calcium signal, replicate 1 (fluorescence units) = 1.50e7; resting calcium signal, replicate 2 (fluorescence units) = 1.49e7; inactive.
Silencing of ERp60 (GeneID 36270) [DRSC07309] came out at: calcium entry signal, replicate 1 (fluorescence units) = 3.12e7; calcium entry signal, replicate 2 (fluorescence units) = 3.81e7; resting calcium signal, replicate 1 (fluorescence units) = 1.41e7; resting calcium signal, replicate 2 (fluorescence units) = 1.40e7; inactive.
Tusp (GeneID 43317) [DRSC15838] gave calcium entry signal, replicate 1 (fluorescence units) = 1.43e7; calcium entry signal, replicate 2 (fluorescence units) = 3.50e7; resting calcium signal, replicate 1 (fluorescence units) = 8.50e6; resting calcium signal, replicate 2 (fluorescence units) = 1.44e7; inactive.
Ir41a (GeneID 2768714) [DRSC04730] scored calcium entry signal, replicate 1 (fluorescence units) = 2.88e7; calcium entry signal, replicate 2 (fluorescence units) = 5.46e7; resting calcium signal, replicate 1 (fluorescence units) = 1.48e7; resting calcium signal, replicate 2 (fluorescence units) = 2.25e7; inactive.
Ir41a (GeneID 2768714) [DRSC04875] scored calcium entry signal, replicate 1 (fluorescence units) = 3.31e7; calcium entry signal, replicate 2 (fluorescence units) = 4.40e7; resting calcium signal, replicate 1 (fluorescence units) = 1.81e7; resting calcium signal, replicate 2 (fluorescence units) = 1.94e7; inactive.
With knock-down of EndoG (GeneID 36309) [DRSC07292], the screen gave calcium entry signal, replicate 1 (fluorescence units) = 3.98e7; calcium entry signal, replicate 2 (fluorescence units) = 3.36e7; resting calcium signal, replicate 1 (fluorescence units) = 1.73e7; resting calcium signal, replicate 2 (fluorescence units) = 1.60e7; inactive.
EndoG (GeneID 36309) [DRSC22746] scored calcium entry signal, replicate 1 (fluorescence units) = 3.60e7; calcium entry signal, replicate 2 (fluorescence units) = 4.83e7; resting calcium signal, replicate 1 (fluorescence units) = 1.99e7; resting calcium signal, replicate 2 (fluorescence units) = 2.35e7; inactive.
